Source: PubChem BioAssay AID1159578 (Peter MacCallum Cancer Centre, 2015)

- Screen: 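Knock-downs that alter how fast lymphatic endothelial cells migrate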 (primary screen)
- Cell system: human lymphatic endothelial cells
- Reagent: siRNA pool against human genes, 40 nM
- Timing: 48 h after transfection
- Read-out: 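High-content imaging of dye-stained cells in a scratch assay measures filled wound area and nuclei per well; duplicate means given as ratio to mock and robust z-score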
- Scale: migration robust z-score: higher = faster migration into the scratch; migration relative to mock: higher = more scratch area covered than mock; nuclei per well: higher = more cells in the well
- Hit rule: 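Pools averaging fewer than 3300 nuclei are never called; remaining pools count as changed when migration robust z lies outside -2 to 2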
- Calls: active = migration changed; inactive = no migration change, or too few cells
Here is an unselected part of about 18,000 reagents. About 1,030 of them (5.7%) were called active. 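Inactive calls also include pools with fewer than 3300 nuclei, whose migration was not assessed.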 Raw values vary from plate to plate and are shown uncorrected. A number with no mark means an inactive call.

gene knocked down,migration robust z-score,migration class with cell-count check,migration relative to mock,"nuclei per well, duplicate mean"
IQGAP1,-1.15,migration z between -2 and 2; enough cells,0.58,5112
BCLAF1,-0.42,migration z between -2 and 2; enough cells,0.73,4876
ATP5PB,-0.41,migration z between -2 and 2; enough cells,0.78,5306
LY6G5B,0.13,migration z between -2 and 2; enough cells,0.92,6214
CARMIL3,-0.26,migration z between -2 and 2; enough cells,0.82,6678
RFX2,0.38,migration z between -2 and 2; enough cells,0.88,6710
KIR2DS3,1.45,migration z between -2 and 2; enough cells,1.26,5756
PLCB4,-0.78,migration z between -2 and 2; enough cells,0.66,5239
GP1BA,0.36,migration z between -2 and 2; enough cells,0.98,5680
ARL6IP1,-2.67 (active),migration z below -2; enough cells,0.19,5854
H2BC15,-1.34,migration z between -2 and 2; enough cells,0.53,4221
ARF5,0.2,migration z between -2 and 2; enough cells,0.84,4739
CITED2,-0.18,migration z between -2 and 2; enough cells,0.77,4878
TCL6,-0.41,migration z between -2 and 2; enough cells,0.78,6662
PLEKHM1P1,1.19,migration z between -2 and 2; enough cells,1.04,5299
NRL,-1.38,migration z between -2 and 2; enough cells,0.54,3868
ABHD17AP1,0.47,migration z between -2 and 2; enough cells,1,6132
ZPLD1,-0.37,migration z between -2 and 2; enough cells,0.79,7726
LDOC1,-0.07,migration z between -2 and 2; enough cells,0.86,5295
PDIA3,-1.79,migration z between -2 and 2; enough cells,0.46,4488
ALDH9A1,-1.33,migration z between -2 and 2; enough cells,0.55,4428
BEX3,1.21,migration z between -2 and 2; enough cells,1.19,5896
PDCL2,-0.12,migration z between -2 and 2; enough cells,0.86,4867
CBLB,-0.23,migration z between -2 and 2; enough cells,0.76,4368
SPNS3,-1.23,migration z between -2 and 2; enough cells,0.57,5708
MRPS9,0.99,migration z between -2 and 2; enough cells,1.14,5551
ASPHD2,0.29,migration z between -2 and 2; enough cells,0.86,5751
OR10V1,-1.64,migration z between -2 and 2; enough cells,0.46,6098
OR14I1,0.75,migration z between -2 and 2; enough cells,1.08,5017
CDK17,0.05,migration z between -2 and 2; enough cells,0.82,6972
TOP1MT,1.74,migration z between -2 and 2; enough cells,1.14,5176
LRP2BP,-0.54,migration z between -2 and 2; enough cells,0.74,5264
ARHGAP33,0.56,migration z between -2 and 2; enough cells,1.03,5470
HNRNPU,0.54,migration z between -2 and 2; enough cells,1.02,5800
TRIM39,0.83,migration z between -2 and 2; enough cells,0.96,5458
SLC6A15,-1.27,migration z between -2 and 2; enough cells,0.56,4574
DEFB126,-1.77,migration z between -2 and 2; enough cells,0.42,4000
USP17L9P,0.96,migration z between -2 and 2; enough cells,0.99,6210
ANGPTL3,0.11,migration z between -2 and 2; enough cells,0.82,6098
MCTP2,-0.2,migration z between -2 and 2; enough cells,0.84,4840
TTBK2,-1.32,migration z between -2 and 2; enough cells,0.55,3390
CFI,-1.17,migration z between -2 and 2; enough cells,0.58,5070
JUP,0.71,migration z between -2 and 2; enough cells,1.07,6162
PTGES2,0.29,migration z between -2 and 2; enough cells,0.86,6514
OSGEP,-0.62,migration z between -2 and 2; enough cells,0.68,5428
BRIP1,-0.94,migration z between -2 and 2; enough cells,0.62,5644
GJC1,-0.21,migration z between -2 and 2; enough cells,0.76,6439
TRIM27,-2.21 (active),migration z below -2; enough cells,0.38,3357
TMEM145,2.47 (active),migration z above 2; enough cells,1.52,7144
PFKFB1,-1.15,migration z between -2 and 2; enough cells,0.58,6016
BCL2L14,-0.33,migration z between -2 and 2; enough cells,0.8,5386
CCDC66,-0.38,migration z between -2 and 2; enough cells,0.78,4769
WNT16,1.24,migration z between -2 and 2; enough cells,1.21,7128
RLF,-0.6,migration z between -2 and 2; enough cells,0.69,5849
VWA5B1,0.28,migration z between -2 and 2; enough cells,0.96,6712
COASY,-4.34,under 3300 nuclei; migration not judged,-0.03,3028
KIF27,-0.5,migration z between -2 and 2; enough cells,0.76,6779

Entries listed so far whose gene name starts with A or a:
gene knocked down,migration robust z-score,migration class with cell-count check,migration relative to mock,"nuclei per well, duplicate mean"
ATP5PB,-0.41,migration z between -2 and 2; enough cells,0.78,5306
ARL6IP1,-2.67 (active),migration z below -2; enough cells,0.19,5854
ARF5,0.2,migration z between -2 and 2; enough cells,0.84,4739
ABHD17AP1,0.47,migration z between -2 and 2; enough cells,1,6132
ALDH9A1,-1.33,migration z between -2 and 2; enough cells,0.55,4428
ASPHD2,0.29,migration z between -2 and 2; enough cells,0.86,5751
ARHGAP33,0.56,migration z between -2 and 2; enough cells,1.03,5470
ANGPTL3,0.11,migration z between -2 and 2; enough cells,0.82,6098
